Binding data for two substances are collected here from paper PMC2584955.

Protein sequences, listed by entry. Tags and fused reporters are not part of them.
UniProt P05556: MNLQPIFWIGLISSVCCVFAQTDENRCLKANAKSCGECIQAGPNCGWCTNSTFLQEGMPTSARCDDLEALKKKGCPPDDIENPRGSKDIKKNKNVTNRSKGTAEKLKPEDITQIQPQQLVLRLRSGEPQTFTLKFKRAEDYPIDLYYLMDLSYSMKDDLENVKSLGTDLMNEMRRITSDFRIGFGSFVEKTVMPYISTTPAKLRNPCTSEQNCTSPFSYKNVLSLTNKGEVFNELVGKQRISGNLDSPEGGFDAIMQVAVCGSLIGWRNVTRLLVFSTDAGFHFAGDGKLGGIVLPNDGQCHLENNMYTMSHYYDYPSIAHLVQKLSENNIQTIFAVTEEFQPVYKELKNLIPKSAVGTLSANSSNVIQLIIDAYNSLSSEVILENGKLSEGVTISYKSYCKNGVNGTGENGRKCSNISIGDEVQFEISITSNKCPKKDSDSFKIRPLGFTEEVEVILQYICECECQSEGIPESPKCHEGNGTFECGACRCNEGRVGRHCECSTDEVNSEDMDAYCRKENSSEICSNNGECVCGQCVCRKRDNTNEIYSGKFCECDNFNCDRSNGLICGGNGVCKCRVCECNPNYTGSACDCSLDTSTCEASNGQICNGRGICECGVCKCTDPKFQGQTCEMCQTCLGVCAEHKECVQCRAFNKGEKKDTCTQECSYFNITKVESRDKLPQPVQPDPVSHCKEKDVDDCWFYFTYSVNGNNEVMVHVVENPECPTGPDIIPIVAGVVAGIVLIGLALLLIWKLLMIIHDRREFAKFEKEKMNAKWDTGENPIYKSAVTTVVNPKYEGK
UniProt Q03135: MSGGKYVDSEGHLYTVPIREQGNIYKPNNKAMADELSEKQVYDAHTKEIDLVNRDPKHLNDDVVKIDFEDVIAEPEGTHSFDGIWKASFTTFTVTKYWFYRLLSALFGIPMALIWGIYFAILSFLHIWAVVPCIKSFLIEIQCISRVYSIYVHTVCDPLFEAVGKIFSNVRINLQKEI

No constants are given. Whether binding was seen depends on the method and setting. Binding seen in cells or lysates may run through a third protein. Some binding calls cover weakened binding; strength is not graded here.

In assay [1] the target is integrin β1 (human (endogenous in 686LN and its derivative M4 cells)) (UniProt P05556). The experiment in a line: co-IP; parental 686LN cells; data not shown.
Assay [2] shares this target. The experiment in a line: co-IP; about 500 μg lysate of CavS cells (pool of CavS-H and CavS-L clones) precleared with protein G-agarose 4 h at 4°C, incubated overnight with 5 μg antibody or non-immunised rabbit or mouse IgG precomplexed with protein G-agarose; 12% SDS-PAGE and immunoblotting. In general terms: A western blot detects proteins with antibodies after separation by electrophoresis.

In the case of “Caveolin-1 (endogenous in parental 686LN cells) (from UniProt Q03135 1-178)”, the binding entry in assay [1] is recorded as “binds”.
Take “Caveolin-1 (human cav-1 cDNA expressed from lentivirus in M4 cells, CavS) (from UniProt Q03135 1-178)”: in assay [2], the binding result is “binds”.
